Among the data in US10233240 are binding values, retold here.

No constants are given. Whether binding was seen depends on the method and setting. Binding seen in cells or lysates may run through a third protein. Some results given as binding are weak or reduced against the parent protein; the word gives no strength.

Assay [1] concerns the target T1, Mesothelin (mouse) (UniProt Q61468).
T1 sequence (looked up): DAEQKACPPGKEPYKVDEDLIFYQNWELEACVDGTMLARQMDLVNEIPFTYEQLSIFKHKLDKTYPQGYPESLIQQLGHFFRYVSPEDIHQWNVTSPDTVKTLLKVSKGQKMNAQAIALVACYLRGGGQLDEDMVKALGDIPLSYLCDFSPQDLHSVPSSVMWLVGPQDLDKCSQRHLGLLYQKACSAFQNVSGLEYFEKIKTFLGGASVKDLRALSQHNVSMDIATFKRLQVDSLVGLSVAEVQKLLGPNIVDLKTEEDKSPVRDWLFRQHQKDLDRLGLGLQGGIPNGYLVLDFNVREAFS
Description: co-immunoprecipitation with anti-Msln Ab, Western blot for Thy-1, n=3.

Assay [2] has as its target T1, Mesothelin (mouse). Nature of the assay: co-immunoprecipitation with anti-Msln Ab from immortalized aPF lysates, Western blot. (In general: A western blot detects proteins with antibodies after separation by electrophoresis.)

B1: Thy-1 (protein, mouse, UniProt P01831 20-131, looked up)
chain: QKVTSLTACLVNQNLRLDCRHENNTKDNSIQHEFSLTREKRKHVLSGTLGIPEHTYRSRVTLSNQPYIKVLTLANFTTKDEGDYFCELQVSGANPMSSNKSISVYRDKLVKC
B1: the binding entry in the assay with Mesothelin (mouse) [1] and with Mesothelin (mouse) [2] was “binds” throughout.
